PubChem BioAssay AID2685 (National Center for Advancing Translational Sciences (NCATS), 2010)
Among all 320,000 compounds or so, about 2,100 (0.66%) were called active. Inconclusive results, whose numbers are uncertain, are shown with a selection of clear calls. Calls come from the whole dose curve; as a rule, active = well fitted inhibition curve with a large enough effect in the signal ratio, with a control signal flat (not every such curve was filed as active); inconclusive = small, poorly fitted or top-dose-only effect, or effect the other way, or a change in a side signal; inactive = flat fitted curve, though single readings scatter; the % refers to the signal ratio. Where the call is inconclusive, the potency comes from a doubtful curve fit.

Test: qHTS Assay for Lipid Storage Modulators in Drosophila S3 Cells
Details: BODIPY lipid droplet fluorescence, 18-24 h, cells fed with added oleic acid; lipid storage change, negative = inhibition: at 46.1 µM (top of the series) unless noted
In short: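 Drosophila S3 cells got compounds at several concentrations plus oleic acid (400 uM solution). Laser-scanning cytometry with 488 nm excitation read lipid droplets at 500-530 nm and cells at 575-640 nm. Percent activity was relative to 20 uM Triacsin C.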
% is set by controls: 0 for no effect and ±100 for the full control effect; potency is the fitted concentration of half-maximal effect.

Lipid storage change, negative = inhibition, inactive:
Cc1ccc(S(=O)(=O)CCC(=O)OCC(=O)N2CCc3ccccc32)cc1
CCC(C)NC(=O)[C@H]1N2C(=O)c3ccccc3C2SC1(C)C (stereo partly specified)

Lipid storage change, negative = inhibition, inconclusive:
CCCN(CCC)S(=O)(=O)c1ccc(C(=O)Nc2cccnc2)cc1 3.75%
COc1ccccc1CC(=O)N1CCCc2cc(C)ccc21 22.3%
COc1ccc2cc(-c3ccn[nH]3)ccc2c1 9.18%
CC(=O)c1ccc(OCc2cc(C(=O)N3CCCCC3c3cccnc3)no2)cc1 (stereo unspecified) -37.4%
Cc1cccc(OCC(=O)Nc2cccc(C(=O)NCC(C)C)c2)c1 31.8%
COc1ccc(CNC(=O)CCS(=O)(=O)c2ccc(Br)cc2)cc1 19.2%
COc1ccc(C(=O)N2CCOC2CNC(=O)C(=O)NCc2ccc(F)cc2)cc1 (stereo unspecified) 47.6%
CC1(c2ccc(OC(F)F)cc2)NC(=O)N(CC(=O)Nc2ccc(S(N)(=O)=O)cc2)C1=O (stereo unspecified) 24.9%
Cc1cc2n(n1)C(c1sccc1C)Nc1c(C)cccc1-2 (stereo unspecified) 19.2%
Cc1ccc(-c2nnn(CC(=O)N(c3cccc(F)c3)C(C(=O)NC3CCCC3)c3ccncc3)n2)o1 (stereo unspecified) 31.8%
COc1cc(OC)cc(-c2c(C#Cc3ccsc3)c3cc(-c4cccc5[nH]ccc45)ccc3n2C)c1 18.9%
Cc1nn(-c2ccccc2)c(C)c1/C=N/NC(=O)CSc1nc2ccccc2c(=O)n1-c1ccccc1 119%
O=C(Nc1sc2c(c1C(=O)NCC1CCCO1)CCCC2)c1cccs1 (stereo unspecified) 30.3%
CC(CC(=O)NCc1ccccc1)C1CCCO1 (stereo unspecified) 33.2%
COc1cccc(-c2cn(C[C@H]3CC[C@@H]([C@@H]4CC[C@H](Cn5cc(-c6cccc(OC)c6)nn5)O4)O3)nn2)c1 1.09%
COc1cc(/C=C/C(=O)OCC(=O)N2CC(=O)Nc3ccccc32)ccc1O 17.5%
Cc1ccc(OCCC(=O)OCC(=O)NC2CCS(=O)(=O)C2)cc1 (stereo unspecified)
COc1ccc(N2CC(NS(=O)(=O)c3cccnc3)CC2=O)cc1 (stereo unspecified) 29.1%
O=C(Nc1ccc2c(c1)OCO2)C1CC(c2ccc(Cl)cc2)=NO1 (stereo unspecified) -50.2%
O=C(NNC(=O)c1sccc1-n1cccc1)Nc1ccc(F)cc1 -2.39%
Cc1ccc(C(CC(=O)N2CCCC2)c2ccccc2)c(O)c1 (stereo unspecified) -5.15%
Cc1cccc(OCC(=O)N2CCc3ccccc3C2)c1 4.78%
CC(C)c1nc2c(s1)CCc1onc(-c3cccc([N+](=O)[O-])c3)c1-2 45.3%
Cn1c(SCC(=O)N2CCCC2)nc2ccccc2c1=O 27.3%
CC(=O)c1ccc(Nc2cc(C)nc3nc(C)nn23)cc1 -10.8%
O=C(CNc1cc(S(=O)(=O)N2CCCC2)ccc1OCC(F)(F)F)Nc1cccc(C(F)(F)F)c1 -20.7%
Cc1c(N2C(=O)/C(=C\c3cccc4ccccc34)SC2=S)c(=O)n(-c2ccccc2)n1C 11.4%
Cc1csc(C(C)NC(=O)c2ccc(OC3CCN(CCc4ccccc4)CC3)cc2)n1 (stereo unspecified) -24.1%
CCOC(=O)C(=CNc1nc(-c2ccc3ccccc3c2)cs1)C(=O)OCC 11.1%
Cc1cccc(CCNC(=O)c2cc(S(=O)(=O)N3CCCCC3)c[nH]2)c1 -15.1%
CC(C)OP(=O)(OC(C)C)C(Nc1ccc([N+](=O)[O-])cc1)c1cccc([N+](=O)[O-])c1 (stereo unspecified) 27.1%
O=C(Cc1ccc([N+](=O)[O-])cc1)N1CCc2ccccc2C1 5.67%
CC1CC(C)CN(CCCNC(=O)c2cc3c(=O)[nH]c4ccccc4c3n2C)C1 (stereo unspecified) -17%
CCN(CC)S(=O)(=O)c1ccc(NN=c2c(=O)c3ccccc3c2=O)cc1 -2.65%
O=C1C=C(NCC2CCCO2)CC(c2ccccc2)C1 (stereo unspecified) 8.09%
COC(=O)c1cccc(N2C(=O)c3ccccc3S2(=O)=O)c1 126%
O=C(CCc1ccccc1)NNC(=O)COc1ccccc1Cl -27.4%
COc1ccc(NC(=O)CSc2nc3ccccc3c(=O)n2CCCN2CCOCC2)c(OC)c1 -30.5%
CN(CC(=O)Nc1ccccc1Cl)C(=O)c1ccc(N2C(=O)CCC2=O)cc1 -37.4%
CCc1ccc(N2CC(C(=O)OCC(=O)Nc3ccc(C#N)cc3)CC2=O)cc1 (stereo unspecified) 11%
N#Cc1ccc(OCC(=O)Nc2nc(-c3ccncc3)cs2)cc1 43.1%
O=S(=O)(N/N=C/c1ccc(OC2CSC2)cc1)c1ccccc1 -27.2%
O=C(Cn1c(=O)sc2ccccc21)NCCOc1ccccc1F -3.03%
COc1ccccc1-c1nnc2n1N=C(C)CS2 5.42%
C=CCSC1=N/C(=C\c2ccc(C)o2)C(=O)S1 -6.45%
Clc1ccc(OCCCCN2CCc3ccccc3C2)cc1 -18.5%
COc1cccc(-n2nnc3c(=O)n(Cc4cccc(C)c4)cnc32)c1 85.2%
Cc1ccc(S(=O)(=O)N2CCN(CC(=O)Nc3ccnn3C3CCCC3)CC2)cc1 -2.2%

Fetched by compound from the list above:
Lipid storage change, negative = inhibition, inconclusive:
O=C(Nc1sc2c(c1C(=O)NCC1CCCO1)CCCC2)c1cccs1 (stereo unspecified) 30.3%
Cc1csc(C(C)NC(=O)c2ccc(OC3CCN(CCc4ccccc4)CC3)cc2)n1 (stereo unspecified) -24.1%
C=CCSC1=N/C(=C\c2ccc(C)o2)C(=O)S1 -6.45%
COc1ccccc1CC(=O)N1CCCc2cc(C)ccc21 22.3%

Following part.

Potency, active:
CC(=O)Nc1ccc(NC(=O)CSc2ncnc3sc(C)c(C)c23)cc1 13 µM
CCCc1ccc(S(=O)(=O)N(C)S(=O)(=O)c2ccc(F)cc2)cc1 0.82 µM

Potency, inconclusive:
Cc1cc([N+](=O)[O-])cnc1Sc1nccn1C 0.0651 µM [falling, full curve, poor fit]
O=C1CN(C(=O)COC(=O)CCS(=O)(=O)c2ccccc2)c2ccccc2N1 2.91 µM [activator, single point]
O=C(COC(=O)c1ccc2ncsc2c1)NC(=O)c1ccccc1 29.1 µM [rising, single point]
COc1ccc(NC(=O)C2CCN(S(=O)(=O)c3ccc(OC)c(OC)c3)CC2)cc1 6.51 µM [falling, single point]
C1=C(c2ccco2)N2CCN=C2S1 29.1 µM [falling, single point]
CC(C)n1ncc2c(C(=O)Nc3cccc(S(=O)(=O)N(C)C)c3)cc(C3CC3)nc21 1.84 µM [falling, partial curve, poor fit]
COc1cc2c(cc1OC)CN(c1ccc(C(N)=O)cc1[N+](=O)[O-])CC2 18.4 µM [falling, single point]
Cc1ccc2nc(Nc3ccc(C)c(Cl)c3)c3nncn3c2c1 3.66 µM [activator, partial curve]
O=C(COC(=O)C1CCC1)NCc1ccccc1Cl 3.26 µM [falling, full curve]
CCOc1cc(NC(=O)CCl)c(OCC)cc1NC(=O)CCl 32.6 µM [falling, single point]
O=[N+]([O-])c1cc(/C=N\Nc2ccccn2)ccc1Cl 6.51 µM [activator, single point]
COc1ccc(CCNC(=O)CCNS(=O)(=O)c2cccc3nonc23)cc1OC 2.91 µM [rising, single point]
COC(=O)C1=C(N)N(c2ccc(F)cc2)C2=C(C(=O)CCC2)C1c1ccc2c(c1)OCO2 (stereo unspecified) 3.66 µM [activator, single point]
Cc1ccccc1N(C(=O)CCC(=O)Nc1ccccn1)C(C(=O)NC(C)C)c1ccc(O)cc1 (stereo unspecified) 4.11 µM [activator, partial curve]
Cc1ccccc1CNC(=O)C(=O)NCCC1CCCCN1S(=O)(=O)c1ccccc1 (stereo unspecified) 6.51 µM [falling, single point]
CCOC(=O)C1=C(C)NC2=C(C(=O)c3ccccc32)C1c1ccc(O)cc1 (stereo unspecified) 0.231 µM [activator, full curve]
CN1CCC(N(C)C(=O)c2ccc(Cl)c(S(=O)(=O)N3CCOCC3)c2)CC1 0.366 µM [falling, full curve]
C=CCNC(=O)NC(=S)c1ccccc1 4.61 µM [activator, partial curve]
CC(C)c1cccc(C(C)C)c1NC(=O)CN1CCCC1 6.51 µM [activator, single point]
CCN(CC)CCCNC(=S)N(CCO)Cc1cc2cc3c(cc2[nH]c1=O)OCO3 0.517 µM [falling, single point]
CCC(=O)Nc1ccc(C(=O)NNC(=O)c2ccc([N+](=O)[O-])cc2)cc1 32.6 µM [activator, single point]
O=C(CSc1nnc(C2CC2)n1-c1ccccc1)Nc1ccc(N2CCOCC2)cc1 2.06 µM [activator, partial curve]
COc1cc(N2C(=O)c3ccccc3C2=O)c(Cl)cc1C(=O)OCC(=O)N(C)C 35.5 µM [falling, single point]
Cc1cc(C(=O)N/N=C/c2ccc3ccccc3c2)n[nH]1 29.1 µM [activator, single point]

2 successive compounds already listed, for reference:
Potency, inconclusive:
C1=C(c2ccco2)N2CCN=C2S1 29.1 µM [falling, single point]
CC(C)n1ncc2c(C(=O)Nc3cccc(S(=O)(=O)N(C)C)c3)cc(C3CC3)nc21 1.84 µM [falling, partial curve, poor fit]
